These results are taken from PubChem BioAssay AID248 (DTP/NCI, 2004).

The test relates to L1210 leukemia ip in BDF1 mice, survival T/C. Briefly: NCI In Vivo Anticancer Drug Screen. Data for tumor model L1210 Leukemia (intraperitoneal) in B6D2F1 (BDF1) mice. The conditions noted are these: T/C endpoint: mean survival time, higher T/C = longer survival.
Setting [1] is: dose: 100.0 mg/kg/injection, schedule: Q04DX003 (ip), vehicle: Klucel (hydroxypropylcellulose) (HPC).
Setting [2] is: dose: 200.0 mg/kg/injection, schedule: Q04DX003 (ip), vehicle: Klucel (hydroxypropylcellulose) (HPC).
[3] abbreviates: dose: 400.0 mg/kg/injection, schedule: Q04DX003 (ip), vehicle: Klucel (hydroxypropylcellulose) (HPC).
Where [4] appears, read: dose: 200.0 mg/kg/injection, schedule: Q04DX003 (ip), vehicle: water.
Setting [5] is: dose: 400.0 mg/kg/injection, schedule: Q04DX003 (ip), vehicle: water.
Setting [6] is: dose: 200.0 mg/kg/injection, schedule: Q04DX003 (ip), vehicle: saline.
The mark [7] stands for this setting: dose: 400.0 mg/kg/injection, schedule: Q04DX003 (ip), vehicle: saline.
Setting [8] is: dose: 200.0 mg/kg/injection, schedule: Q01DX009 (ip), vehicle: Klucel (hydroxypropylcellulose) (HPC).
[9] abbreviates: dose: 400.0 mg/kg/injection, schedule: Q01DX009 (ip), vehicle: Klucel (hydroxypropylcellulose) (HPC).
Setting [10] is: dose: 200.0 mg/kg/injection, schedule: Q01DX001 (ip), vehicle: saline.

The structures appear in SMILES notation. The list does not hold the whole screen: it gathers tests that were run many times, whatever their T/C, doses with no T/C, and many T/C values between a quarter and a half above the control. Other doses and runs of a compound stand elsewhere. T/C: endpoint of the treated group in % of that of the vehicle group. Some doses have a count of surviving animals in place of a T/C: the source files T/C as zero there, which appears to mark a toxic dose or a test without result, not a measured value. Some survivor counts are full or nearly so, which does not show that the dose was tolerated: survival well below the control is almost never listed, so the zero probably covers shortened survival too. Counts of survivors are from the toxicity check (mostly the fifth day) where no day follows; animals may have died later. Schedule codes are those of the source, read here as Q, the interval in days (D) or hours (H), X, the number of doses. Some doses were run more than once; the results are listed from low to high. Some schedules carry Z or #; the key to these is not given. Where survival is the endpoint, this PubChem deposit counts one and a half times the control or more as active, and values a quarter to a half above the control carry no call in these data; other NCI protocols may use other cut-offs.

As for `c1coc(-c2cnc3ccccc3n2)c1`, the survivor count (dose: 300.0 mg/kg/injection, schedule: Q01DX001 (ip), vehicle: carboxymethylcellulose (CMC)) is listed as 0 of 6.

Take `CC(=O)Oc1cccc2c1C(=O)OC2=O`: for the setting “dose: 400.0 mg/kg/injection, schedule: Q01DX001 (ip), vehicle: saline with Tween-80”, the survivor count was 3 of 6.

For `CCCCCCCCCCCC(=O)NC(=S)Nc1ccc(OC)cc1`, the survivor count is on record as 6 of 6 under setting [1], 6 of 6 under setting [2] and 6 of 6 under setting [3].

Regarding `Nc1nc(Cl)nc2c1ncn2Cc1ccccc1`, the survivor count (dose: 150.0 mg/kg/injection, schedule: Q01DX001 (ip), vehicle: other) is given as 1 of 6 and the survivor count (dose: 300.0 mg/kg/injection, schedule: Q01DX001 (ip), vehicle: other) is listed as 0 of 6.

As for `C1CCN[N-]C1.C1CCN[N-]C1.[Cl][Pt+2]([Cl])([Cl])[Cl]`, the survivor count is on record as 3 of 6 (dose: 100.0 mg/kg/injection, schedule: Q04DX003 (ip), vehicle: water); 3 of 6 under setting [4]; 0 of 6 under setting [5].

Turning to `CN=C(NC1CCCCC1)c1ccc(NC(=O)c2ccc(C(=O)Nc3ccc(C(=NC)NC4CCCCC4)cc3)cc2)cc1`, the survivor count is given as 1 of 6 (dose: 15.0 mg/kg/injection, schedule: Q01DX Z (ip), vehicle: saline); 0 of 6 (dose: 30.0 mg/kg/injection, schedule: Q01DX Z (ip), vehicle: saline); 0 of 6 (dose: 60.0 mg/kg/injection, schedule: Q01DX Z (ip), vehicle: saline); 0 of 6 (dose: 120.0 mg/kg/injection, schedule: Q01DX Z (ip), vehicle: saline).

For `O=[N+]([O-])c1ccc(C[n+]2ccc3ccccc3c2)cc1`, the survivor count is recorded as 4 of 6 (dose: 100.0 mg/kg/injection, schedule: Q04DX003 (ip), vehicle: acetone); 0 of 6 (dose: 200.0 mg/kg/injection, schedule: Q04DX003 (ip), vehicle: acetone); 0 of 6 (dose: 400.0 mg/kg/injection, schedule: Q04DX003 (ip), vehicle: acetone).

Regarding `C#CCO`, the survivor count (dose: 100.0 mg/kg/injection, schedule: Q04DX003 (ip), vehicle: saline) is reported as 0 of 6; the survivor count under setting [6] is given as 0 of 6; the survivor count under setting [7] is recorded as 0 of 6.

`CCCC[n+]1cc(C(N)=O)cc2ccccc21`: for the setting “dose: 300.0 mg/kg/injection, schedule: Q01DX001 (ip), vehicle: saline”, the survivor count was 0 of 6.

`CNc1ncc2nc(C)c(=O)n(C)c2n1`: the survivor count under setting [8] is listed as 1 of 3.

Regarding `CCOC(=O)C(CCN1CCCCC1)c1cccc2ccccc12` (stereo not drawn), the survivor count under setting [3] was 0 of 6.

With `Cc1cc(=O)c2ccccc2[nH]1`, the survivor count runs as follows: under setting [6], 3 of 6; under setting [7], 0 of 6.

`O=C(Nc1ccc(C(=O)Nc2ccc(C3=NCCCN3)cc2)cc1)Nc1ccc(C2=NCCCN2)cc1`: the survivor count (dose: 15.0 mg/kg/injection, schedule: Q01DX Z (ip), vehicle: other) was 2 of 6; the survivor count (dose: 30.0 mg/kg/injection, schedule: Q01DX Z (ip), vehicle: other) is 0 of 6; the survivor count (dose: 60.0 mg/kg/injection, schedule: Q01DX Z (ip), vehicle: other) is listed as 0 of 6; the survivor count (dose: 120.0 mg/kg/injection, schedule: Q01DX Z (ip), vehicle: other) was 0 of 6.

For `O=C(O)c1cc(Cl)nc(Cl)c1`, the survivor count under setting [9] is reported as 2 of 6.

For `COc1ccc(-c2nc(SCc3ccc(Cl)cc3)[nH]c(=O)c2CCO)cc1`, under setting [7], the survivor count is reported as 6 of 6.

Regarding `O=C1C=CC(=O)C2C3C=CC(C3)C12` (stereo not drawn), the survivor count is 0 of 6 under setting [8] and 0 of 6 under setting [9].

Regarding `O=C(Nc1cccc(C(F)(F)F)c1)C(Br)C(Br)c1ccccc1` (stereo not drawn), the survivor count under setting [9] is recorded as 1 of 6.

As to `COc1cc2c(c(OC)c1OC)-c1ccc(OC)c(=O)cc1[C@@H](NC=O)CC2`, the T/C (dose: 1.0 mg/kg/injection, schedule: Q01DX009 (ip), vehicle: Klucel (hydroxypropylcellulose) (HPC)) was 133 % of control and the T/C (dose: 1.5 mg/kg/injection, schedule: Q01DX015 (ip), vehicle: carboxymethylcellulose (CMC)) is 125 % of control. Further, the survivor count reads like this: (dose: 2.0 mg/kg/injection, schedule: Q01DX009 (ip), vehicle: Klucel (hydroxypropylcellulose) (HPC)) 3 of 6; (dose: 4.0 mg/kg/injection, schedule: Q01DX009 (ip), vehicle: Klucel (hydroxypropylcellulose) (HPC)) 0 of 6; (dose: 8.0 mg/kg/injection, schedule: Q01DX009 (ip), vehicle: Klucel (hydroxypropylcellulose) (HPC)) 0 of 6; (dose: 50.0 mg/kg/injection, schedule: Q04DX003 (ip), vehicle: Klucel (hydroxypropylcellulose) (HPC)) 2 of 6; under setting [1], 0 of 6; under setting [2], 0 of 6. The survivor count under setting [3] is listed as 0 of 6.

Regarding `Cc1ccc(C(C)C)c(OCC(O)CN2CC=CCC2)c1` (stereo not drawn), the survivor count is on record as 1 of 6 under setting [6] and 0 of 6 under setting [7].

Turning to `CCCCCCCCCCCCCCCCCCNC(=S)N/N=C/c1ccccc1[N+](=O)[O-]`, where the note is “dose: 250.0 mg/kg/injection, schedule: Q01DX Z (ip), vehicle: methylcellulose (MC)”, the survivor count was 2 of 6.

With `NN=C1CCC(=NN)CC1`, the survivor count is recorded as 6 of 6 (dose: 100.0 mg/kg/injection, schedule: Q01DX009 (ip), vehicle: water); 0 of 6 (dose: 150.0 mg/kg/injection, schedule: Q01DX009 (ip), vehicle: water); 2 of 6 under setting [4]; 1 of 6 under setting [5].

For `Cn1cnc2c([N+](C)(C)C)ncnc21`, the survivor count (dose: 135.0 mg/kg/injection, schedule: Q04DX003 (ip), vehicle: saline) was 2 of 6; the survivor count under setting [6] is reported as 0 of 6; the survivor count (dose: 300.0 mg/kg/injection, schedule: Q04DX003 (ip), vehicle: saline) was 0 of 6; the survivor count under setting [7] was 1 of 6 and 2 of 6. In addition, the T/C under setting [6] is 137 % of control.

With `COC(=O)C1=CO[C@@H](C)[C@@H]2Cn3ccc4c5ccccc5nc-4c3C[C@H]12`, the survivor count under setting [10] is reported as 4 of 4.

As for `CCCCNS(=O)(=O)c1ccc(Cl)c([N+](=O)[O-])c1`, the survivor count (dose: 400.0 mg/kg/injection, schedule: Q04DX003 (ip), vehicle: gum acacia) is recorded as 5 of 6.

Regarding `CCC(N)C(O)C(Cl)(Cl)Cl` (stereo not drawn), the survivor count (dose: 200.0 mg/kg/injection, schedule: Q04DX003 (ip), vehicle: saline with Tween-80) was 6 of 6 and the survivor count (dose: 400.0 mg/kg/injection, schedule: Q04DX003 (ip), vehicle: saline with Tween-80) is listed as 4 of 6.

On to `O=[N+]([O-])C(Br)C(Br)c1ccccc1` (stereo not drawn), for which the survivor count reads like this: (dose: 75.0 mg/kg/injection, schedule: Q01DX001 (ip), vehicle: Klucel (hydroxypropylcellulose) (HPC)) 6 of 6; (dose: 150.0 mg/kg/injection, schedule: Q01DX001 (ip), vehicle: Klucel (hydroxypropylcellulose) (HPC)) 1 of 6; (dose: 300.0 mg/kg/injection, schedule: Q01DX001 (ip), vehicle: Klucel (hydroxypropylcellulose) (HPC)) 0 of 6.

For the compound `Cc1ccc2c(c1)SP(=S)(c1ccccc1)N2` (stereo not drawn), the survivor count is on record as 0 of 6 (dose: 35.0 mg/kg/injection, schedule: Q01DX Z (ip), vehicle: saline); 0 of 6 (dose: 50.0 mg/kg/injection, schedule: Q01DX001 (ip), vehicle: saline); 1 of 6 (dose: 50.0 mg/kg/injection, schedule: Q01DX Z (ip), vehicle: saline); 0 of 6 (dose: 100.0 mg/kg/injection, schedule: Q01DX001 (ip), vehicle: saline); 1 of 6 under setting [10]; 0 of 6 (dose: 400.0 mg/kg/injection, schedule: Q01DX001 (ip), vehicle: saline).
